Measurements from “University of Dundee, Small-Polar-MMV Screening Library” (2021), ChEMBL document CHEMBL3988442.

Mtb growth Cornell: 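Whole-cell assay for inhibitors of Mycobacterium tuberculosis growth, labelled Cornell in the record; the read-out is not stated. The concentration is filed as 10 mM, unlikely as a test dose, so the dose is not known. Higher means stronger inhibition (inferred from two other growth screens of the library). About 53,000 compounds were tested under these conditions; 1.7% (about 900) showed 50% or more at least once.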
Mtb heat-shock: 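Assay on Mycobacterium tuberculosis, filed only as a heat shock assay from Cornell; the read-out is not stated. The concentration is filed as 10 mM, unlikely as a test dose, so the dose is not known. Higher reads as stronger inhibition (inferred: compounds with an IC50 in retests scored well above the rest). About 69,000 compounds were tested under these conditions; 1.4% (about 930) showed 50% or more at least once.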

Results are given as percent effect.
The record does not define 0% and 100%; most values in the screen are far below 50% and negative numbers occur (in some assays of this library far below -100).
The compounds are a random part of those screened.

With O=C(NC1CCN(c2ncccn2)CC1)c1cc2c([nH]c1=O)CCC2 the screen gave Mtb growth Cornell: 28.2%; Mtb heat-shock: -13.66%. Result for CCC(C)NS(=O)(=O)Cc1cccc(NC(=O)C2=CCCC2)c1 (centres unmarked) was Mtb heat-shock: 26.24%. Result for Cc1cccc(SC2CCN(C(=O)CCCS(N)(=O)=O)CC2)c1 was Mtb growth Cornell: 37.58%; Mtb heat-shock: -3.115%. Result for CC1CN(C)CCN1C(=O)c1ccn(-c2ccc(F)cc2)n1 (centres unmarked) was Mtb growth Cornell: -9.387%; Mtb heat-shock: -11.42%. O=C(NCCn1nc(-n2cncn2)ccc1=O)c1ccsc1 read Mtb growth Cornell: -2.481%; Mtb heat-shock: 8.598%. N#Cc1ccc(SCCCO)c(F)c1 read Mtb growth Cornell: -2.61%; Mtb heat-shock: 8.992%.

For Cn1cc(CN(C(=O)C2COc3ccccc3C2)C2CC2)cn1 (centres unmarked) the result was Mtb heat-shock: 8.635%. For CNC(=O)CN1CCOCC2(C1)CN(C(=O)CC(C)C)CCO2.O=C(O)C(F)(F)F (centres unmarked) the result was Mtb growth Cornell: 21.43%; Mtb heat-shock: -19.87%. Result for CC(C)(NCc1ccc(C#N)cc1)c1ccc2c(c1)OCO2 was Mtb growth Cornell: 9.673%; Mtb heat-shock: -33.4%. With Cc1cnn(CCNCC(O)c2ccc3c(c2)OCCO3)c1 (centres unmarked) the screen gave Mtb growth Cornell: 9.85%; Mtb heat-shock: -45.28%. With O=C(CCn1c(C(F)(F)F)cc2cccnc21)N1CCC(O)CC1 the screen gave Mtb growth Cornell: -5.112%; Mtb heat-shock: -2.204%. Result for O=C(Cn1cccc1)NCC1CCN(Cc2cc3ccccc3[nH]2)C1 (centres unmarked) was Mtb growth Cornell: 19.33%; Mtb heat-shock: -19.03%.

Result for CCOc1cc(CN2CCCC2)ccc1Oc1cccc(C#N)n1 was Mtb growth Cornell: 24.33%; Mtb heat-shock: 15.01%. Result for C[C@@]1(O)CCN(Cc2cc[nH]n2)C[C@H]1Oc1cccc(F)c1 was Mtb heat-shock: -4.224%. Result for O=C(CCn1cncn1)NC1CCS(=O)(=O)C1 (centres unmarked) was Mtb growth Cornell: -35.5%; Mtb heat-shock: 3.106%. With O=C(O)C(F)(F)F.[H][C@@]12CN(Cc3ccsc3)C[C@]1([H])[C@@H]2CC(=O)N1CCCC1 the screen gave Mtb heat-shock: 5.093%. With [H][C@]12CC[C@]([H])(CN(C(=O)N(C)C)C1)N(Cc1nnc(-c3ccccc3)o1)C2 the screen gave Mtb growth Cornell: 13.43%; Mtb heat-shock: 16.99%. [H][C@@]12CNCC[C@]1(O)CCN(c1nnc(C)c3ccccc13)C2 gave Mtb heat-shock: -18.95%.

Cc1ncc(S(C)(=O)=O)c(C2CCCNC2)n1 (centres unmarked) read Mtb growth Cornell: 0.9061%; Mtb heat-shock: -19.42%. [H][C@]12CC[C@]([H])(CN(C)C1)N(C(=O)c1ccc(OCC)c(OCC)c1)C2 read Mtb growth Cornell: 10.46%; Mtb heat-shock: 13.92%. With COc1ccccc1OC(C)CNC(=O)c1cnc[nH]1 (centres unmarked) the screen gave Mtb growth Cornell: -8.483%; Mtb heat-shock: -19.93%. CCCC(=O)NC1CCCN(c2cncc(Br)c2)C1 (centres unmarked) gave Mtb heat-shock: 23.55%. With COCC1CN(C(=O)COc2ccccc2)Cc2cn(C)nc21.O=C(O)C(F)(F)F (centres unmarked) the screen gave Mtb growth Cornell: 11.51%; Mtb heat-shock: -15.41%. CC(=O)Nc1nc(C(=O)NC(C)c2ccncc2)cs1 (centres unmarked) gave Mtb growth Cornell: -46.84%; Mtb heat-shock: 6.17%.

CCOCC1CN(C(=O)c2ccco2)Cc2cnn(CC)c21 (centres unmarked) read Mtb growth Cornell: -50.34%; Mtb heat-shock: -27.36%. Cn1c(=O)c2cc(C(=O)NCCOc3ccccc3)ccc2n(C)c1=O gave Mtb growth Cornell: -8.994%; Mtb heat-shock: -6.994%. For CC(C)c1nn(C)c(N(C)C)c1CNCc1cccc2c1OCO2 the result was Mtb growth Cornell: 36.1%; Mtb heat-shock: -0.03639%. With [H][C@@]12C[C@H](NC(=O)C3CC3)CN1[C@H](CCC(=O)N(CC)CC)CNC2=O the screen gave Mtb heat-shock: 8.959%. O=C(NCC(O)(c1ccco1)C1CC1)c1ccccc1F (centres unmarked) read Mtb growth Cornell: 14.49%; Mtb heat-shock: -11.51%. Result for CSc1ccc(CNc2ccccc2CN2CCC(O)CC2)cc1 was Mtb growth Cornell: -27.89%; Mtb heat-shock: 8.243%.

With CCc1cc(C)c(C(=O)N2CCCC2CC(=O)c2cnn(C)c2)o1 (centres unmarked) the screen gave Mtb heat-shock: -6.445%. CCc1ccc(C(C)NC(=O)N2CCC(n3cncn3)CC2)cc1 (centres unmarked) read Mtb heat-shock: -4.983%. With O=C(O)C(F)(F)F.O=C(O)C(F)(F)F.[H][C@@]12CO[C@@H](CNC(=O)c3ccco3)[C@]1([H])CCN(Cc1cnn(C)c1)C2 the screen gave Mtb growth Cornell: 12.86%; Mtb heat-shock: -15.87%.